Our source for the binding values is article PMC4175184, “Structure and function of cohesin’s Scc3/SA regulatory subunit” (Febs Letters, 2014).

This test concerns the target T1, Flag-tagged S. cerevisiae Scc3 (S. cerevisiae) (UniProt P40541).
T1 sequence: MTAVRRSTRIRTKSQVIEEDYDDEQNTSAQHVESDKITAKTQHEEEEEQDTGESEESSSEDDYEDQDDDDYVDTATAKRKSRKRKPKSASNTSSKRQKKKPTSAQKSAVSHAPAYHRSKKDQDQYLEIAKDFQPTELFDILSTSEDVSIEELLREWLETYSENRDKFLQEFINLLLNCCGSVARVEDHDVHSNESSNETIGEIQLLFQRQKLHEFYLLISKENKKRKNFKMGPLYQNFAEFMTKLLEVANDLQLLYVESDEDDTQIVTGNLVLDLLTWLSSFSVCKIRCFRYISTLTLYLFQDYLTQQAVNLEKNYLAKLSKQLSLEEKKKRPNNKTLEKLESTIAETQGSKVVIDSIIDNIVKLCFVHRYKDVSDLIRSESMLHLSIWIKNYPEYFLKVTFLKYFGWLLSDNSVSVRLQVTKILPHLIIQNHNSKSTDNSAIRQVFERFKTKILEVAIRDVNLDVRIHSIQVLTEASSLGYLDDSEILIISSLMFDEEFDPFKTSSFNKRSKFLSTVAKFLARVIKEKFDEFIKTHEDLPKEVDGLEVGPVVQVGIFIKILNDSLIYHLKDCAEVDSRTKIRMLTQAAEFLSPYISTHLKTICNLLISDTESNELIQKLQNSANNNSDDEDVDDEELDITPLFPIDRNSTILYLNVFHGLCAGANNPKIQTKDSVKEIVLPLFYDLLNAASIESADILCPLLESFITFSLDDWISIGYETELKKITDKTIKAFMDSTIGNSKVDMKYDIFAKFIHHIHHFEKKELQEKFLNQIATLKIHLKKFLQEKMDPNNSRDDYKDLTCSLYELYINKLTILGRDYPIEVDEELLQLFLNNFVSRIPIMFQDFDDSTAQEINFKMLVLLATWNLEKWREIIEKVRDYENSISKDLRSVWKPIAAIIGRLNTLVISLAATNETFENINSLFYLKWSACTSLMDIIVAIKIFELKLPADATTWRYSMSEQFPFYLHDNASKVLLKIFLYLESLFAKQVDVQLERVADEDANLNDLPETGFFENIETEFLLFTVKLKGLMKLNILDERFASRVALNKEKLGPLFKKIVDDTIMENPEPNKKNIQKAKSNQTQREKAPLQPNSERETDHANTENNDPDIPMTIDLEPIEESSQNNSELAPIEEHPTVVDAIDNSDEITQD
Briefly: pull-down; Flag-tagged Scc3 held on anti-Flag M2 affinity gel; 5 μM of each purified protein in 100 μl TAP buffer (50 mM Tris–HCl, 250 mM NaCl, 1 mM β-mercaptoethanol, pH 7.5), 2 h at 4 °C; SDS–PAGE and Coomassie staining (Fig. 2B); both purified.

Results are given in words; binding and its absence hold for the method and conditions named. A result given as binding can be weak or reduced; the word gives no strength. Tags and fused reporters may be left off the sequences shown.

For “Smc1 ATPase head co-purified with Scc1 fragment (residues 310–566) (S. cerevisiae) (complex)”, the binding entry is listed as “binds”.
